No constants are given. Whether binding was seen depends on the method and setting. Some entries that bind do so weakly or less than the wild type.
Each binder was assayed against recombinant human CD8 alpha fused to Fc fragment of human IgG1 (human) (UniProt P01732) (assay: ELISA, biotinylated CD8W7 or CD8W13).

By UniProt entry, the sequences of proteins in these tests, tags left out. Residues count along the entry.
UniProt P01732, residues 22-182: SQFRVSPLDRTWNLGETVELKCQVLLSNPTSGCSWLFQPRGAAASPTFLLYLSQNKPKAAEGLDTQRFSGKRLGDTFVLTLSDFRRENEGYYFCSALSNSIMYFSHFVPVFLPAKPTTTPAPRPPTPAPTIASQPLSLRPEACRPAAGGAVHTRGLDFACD

Row | binding | Binder
1 | binds | P283BR9P1363_C4 (designed binder) LPAPKNLVVSRVTEDSARLSWPIVNTPLHFDSFLIQYQESEKVGEAIVLTVPGSERSYDLTGLKPGTEYTVSIYGVDVQYTATGQPERSNPLSAIFTT
2 | binds | P283AR9P1362_B2 (designed binder) LPAPKNLVVSRVTEDSARLSWAKHPNSFDSFLIQYQESEKVGEAIVLTVPGSERSYDLTGLKPGTEYTVSIYGVDVVVNELNNPLFSNPLSAIFTT
3 | binds | P283BR9P1363_B6 (designed binder) LPAPKNLVVSRVTEDSARLSWQRHSDAHPLFDSFLIQYQESEKVGEAIVLTVPGSERSYDLTGLKPGTEYTVSIYGVDVKWEGNRPVASNPLSAIFTT
4 | binds | P282BR9P1357_B2 (designed binder) LPAPKNLVVSRVTEDSARLSWNPSEDPQRFDSFLIQYQESEKVGEAIVLTVPGSERSYDLTGLKPGTEYTVSIYGVDVKWEGNRPVASNPLSAIFTT
5 | binds | P282BR9P1357_A9 (designed binder) LPAPKNLVVSRVTEDSARLSWKANRTTDLHFDSFLIQYQESEKVGEAIVLTVPGSERSYDLTGLKPGTEYTVSIYGVDVQYDGQQPLYSNPLSAIFTT
6 | binds | P283BR9P1363_A8 (designed binder) LPAPKNLVVSRVTEDSARLSWVRSDTARFFDSFLIQYQESEKVGEAIVLTVPGSERSYDLTGLKPGTEYTVSIYGVDVKYDIDSRPISSNPLSAIFTT
7 | binds | P282FR9P1361_E12 (designed binder) LPAPKNLVVSRVTEDSARLSWTAPDAAFDSLGITYWESPYAGEAIVLTVPGSERSYDLTGLKPGTEYGVFILGVKGGYPSAPLSAIFTT
8 | binds | P282FR9P1361_G9 (designed binder) LPAPKNLVVSRVTEDSARLSWTAPDAAFDSFGITYWESPYAGEAIVLTVPGSERSYDLTGLKPGTEYGVFILGVKGGYPSAPLSAIFTT
9 | binds | P283AR9P1362_C7 (designed binder) LPAPKNLVVSRVTEDSARLSWVKRATSFDSFLIQYQESEKVGEAIVLTVPGSERSYDLTGLKPGTEYTVSIYGVDVRYNEGQPIWSNPLSAIFTT
10 | binds | P283AR9P1362_G3 (designed binder) LPAPKNLVVSRVTEDSARLSWVKRATSFDSFLIQYQESEKVGEAIVLTVPGSERSYDLTGLKPGTEYTVSIYGVDVKWEGNRPVASNPLSAIFTT
11 | binds | P282FR9P1361_F7 (designed binder) LPAPKNLVVSRVTEDSARLSWTAPDAAFDSFPIWYREYATGEAIVLTVPGSERSYDLTGLKPGTEYDVVITGVKGGYPSYPLSAIFTT
12 | binds | P283AR9P1362_C6 (designed binder) LPAPKNLVVSRVTEDSARLSWYPSDPPFDSFLIQYQESEKVGEAIVLTVPGSERSYDLTGLKPGTEYTVSIYGVPNYHSRRSYYYSNPLSAIFTT
13 | binds | P283BR9P1363_A10 (designed binder) LPAPKNLVVSRVTEDSARLSWQRADDILPYFDSFLIQYQESEKVGEAIVLTVPGSERSYDLTGLKPGTEYTVSIYGVDVKYDIDSRPISSNPLSAIFTT
14 | binds | P283BR9P1363_B2 (designed binder) LPAPKNLVVSRVTEDSARLSWASTVDPHPRFDSFLIQYQESEKVGEAIVLTVPGSERSYDLTGLKPGTEYTVSIYGVDVKYDIDSRPISSNPLSAIFTT
15 | binds | P282FR9P1361_C7 (designed binder) LPAPKNLVVSRVTEDSARLSWTAPDAAFDSFGIWYHEYGGDGEAIVLTVPGSERSYDLTGLKPGTEYDVAIWGVKGGDVSYPLSAIFTT
16 | binds | P282FR9P1361_F11 (designed binder) LPAPKNLVVSRVTEDSARLSWTAPDAAFDSFGIWYREYGGSGEAIVLTVPGSERSYDLTGLKPGTEYDVAIWGVKGGVRSYPLSAIFTT
17 | binds | P282FR9P1361_H5 (designed binder) LPAPKNLVVSRVTEDSARLSWTAPDAAFDSFDIWYAEYGYPGEAIVLTVPGSERSYDLTGLKPGTEYDVAISGVKGGPRSYPLSAIFTT
18 | binds | P282FR9P1361_F2 (designed binder) LPAPKNLVVSRVTEDSARLSWTAPDAAFDSFDIWYAEYGYPGEAIVLTVPGSERSYDLTGLKPGTEYDVAISGIKGGPRSYPLSAIFTT
19 | binds | P282FR9P1361_F3 (designed binder) LPAPKNLVVSRVTEDSARLSWTAPDAAFDSFDIWYAEYGYPGEAIVLTVPGSERSYDLTGLKPGTEYDVAISGAKGGPRSYPLSAIFTT
20 | binds | P282FR9P1361_H4 (designed binder) LPAPKNLVVSRVTEDSARLSWTAPDAAFDSFGIWYAEYGYSGEAIVLTVPGSERSYDLTGLKPGTEYDVAIYGVKGGSPSYPLSAIFTT

Row | binding | Binder
21 | binds | P282FR9P1361_D3 (designed binder) LPAPKNLVVSRVTEDSARLSWTAPDAAFDSFDIWYAEYGYPGEAIVLTVPGSERSYDLTGLNPGTEYDVAISGVKGGPRSYPLSAIFTT
22 | binds | P282FR9P1361_F1 (designed binder) LPAPKNLVVSRVTEDSARLSWTAPDAAFDSFGIWYAEYGYSGEAIVLTVPGSERSYDLTGLKPGTEYDVAIWGVKGGVRSYPLSAIFTT
23 | binds | P283AR9P1362_A3 (designed binder) LPAPKNLVVSRVTEDSARLSWKRIDSPFDSFLIQYQESEKVGEAIVLTVPGSERSYDLTGLKPGTEYTVSIYGVDVKYDIDSRPISSNPLSAIFTT
24 | binds | P283AR9P1362_F2 (designed binder) LPAPKNLVVSRVTEDSARLSWRKKDHPFDSFLIQYQESEKVGEAIVLTVPGSERSYDLTGLKPGTEYTVSIYGVDVKYDIDSRPISSNPLSAIFTT
25 | binds | P283AR9P1362_B8 (designed binder) LPAPKNLVVSRVTEDSARLSWWTSPLPFDSFLIQYQESEKVGEAIVLTVPGSERSYDLTGLKPGTEYTVSIYGVDVKYDIDSRPISSNPLSAIFTT
26 | binds | P283AR9P1362_A4 (designed binder) LPAPKNLVVSRVTEDSARLSWIGHDSGFDSFLIQYQESEKVGEAIVLTVPGSERSYDLTGLKPGTEYTVSIYGVDVKYDIDSRPISSNPLSAIFTT
27 | binds | P283AR9P1362_D4 (designed binder) LPAPKNLVVSRVTEDSARLSWVREHDSFDSFLIQYQESEKVGEAIVLTVPGSERSYDLTGLKPGTEYTVSIYGVDVKYDIDSRPISSNPLSAIFTT
28 | binds | P283AR9P1362_C12 (designed binder) LPAPKNLVVSRVTEDSARLSWAKNLHSFDSFLIQYQESEKVGEAIVLTVPGSERSYDLTGLKPGTEYTVSIYGVDVKYDIDSRPISSNPLSAIFTT
29 | binds | P283AR9P1362_D6 (designed binder) LPAPKNLVVSRVTEDSARLSWAKRPGAFDSFLIQYQESEKVGEAIVLTVPGSERSYDLTGLKPGTEYTVSIYGVDVKYDIDSRPISSNPLSAIFTT
30 | binds | P283AR9P1362_E9 (designed binder) LPAPKNLVVSRVTEDSARLSWVPSPWGFDSFLIQYQESEKVGEAIVLTVPGSERSYDLTGLKPGTEYTVSIYGVDVKYDIDSRPISSNPLSAIFTT
31 | binds | P283AR9P1362_F12 (designed binder) LPAPKNLVVSRVTEDSARLSWARNITSFDSFLIQYQESEKVGEAIVLTVPGSERSYDLTGLKPGTEYTVSIYGVDVKYDIDSRPISSNPLSAIFTT
32 | binds | P283AR9P1362_F8 (designed binder) LPAPKNLVVSRVTEDSARLSWGYYHGHFDSFLIQYQESEKVGEAIVLTVPGSERSYDLTGLKPGTEYTVSIYGVDVKWEGNRPVASNPLSAIFTT
33 | binds | P283AR9P1362_D2 (designed binder) LPAPKNLVVSRVTEDSARLSWQRPKSGFFDSFLIQYQESEKVGEAIVLTVPGSERSYDLTGLKPGTEYTVSIYGVDVKYDIDSRPISSNPLSAIFTT
34 | binds | P283AR9P1362_H11 (designed binder) LPAPKNLVVSRVTEDSARLSWPKIQGQHFDSFLIQYQESEKVGEAIVLTVPGSERSYDLTGLKPGTEYTVSIYGVDVKYDIDSRPISSNPLSAIFTT
35 | binds | P283AR9P1362_B10 (designed binder) LPAPKNLVVSRVTEDSARLSWKRRWDSFDSFLIQYQESEKVGEAIVLTVPGSERSYDLTGLKPGTEYTVSIYGVDVEWFNGLPHHSNPLSAIFTT
36 | binds | P282AR9P1356_H6 (designed binder) LPAPKNLVVSRVTEDSARLSWRKRANSFDSFLIQYQESEKVGEAIVLTVPGSERSYDLTGLKPGTEYTVSIYGVHVEYDQHGRPRWSNPLSAIFTT
37 | binds | P283AR9P1362_D3 (designed binder) LPAPKNLVVSRVTEDSARLSWPVESNAFDSFLIQYQESEKVGEAIVLTVPGSERSYDLTGLKPGTEYTVSIYGVDVEYDQHGRPRWSNPLSAIFTT
38 | binds | P283AR9P1362_D7 (designed binder) LPAPKNLVVSRVTEDSARLSWVKRATSFDSFLIQYQESEKVGEAIVLTVPGSERSYDLTGLKPGTEYTVSIYGVDVKYDIDSRPISSNPLSAIFTT
39 | binds | P283AR9P1362_G11 (designed binder) LPAPKNLVVSRVTEDSARLSWRKEATSFDSFLIQYQESEKVGEAIVLTVPGSERSYDLTGLKPGTEYTVSIYGVDVKYDIDSRPISSNPLSAIFTT

From patent publication US20210032312A1
